Laboratory results as given in publication PMC9436914.

Sequences of proteins named here, by UniProt entry; tags and fusion partners are left off.
UniProt P35222: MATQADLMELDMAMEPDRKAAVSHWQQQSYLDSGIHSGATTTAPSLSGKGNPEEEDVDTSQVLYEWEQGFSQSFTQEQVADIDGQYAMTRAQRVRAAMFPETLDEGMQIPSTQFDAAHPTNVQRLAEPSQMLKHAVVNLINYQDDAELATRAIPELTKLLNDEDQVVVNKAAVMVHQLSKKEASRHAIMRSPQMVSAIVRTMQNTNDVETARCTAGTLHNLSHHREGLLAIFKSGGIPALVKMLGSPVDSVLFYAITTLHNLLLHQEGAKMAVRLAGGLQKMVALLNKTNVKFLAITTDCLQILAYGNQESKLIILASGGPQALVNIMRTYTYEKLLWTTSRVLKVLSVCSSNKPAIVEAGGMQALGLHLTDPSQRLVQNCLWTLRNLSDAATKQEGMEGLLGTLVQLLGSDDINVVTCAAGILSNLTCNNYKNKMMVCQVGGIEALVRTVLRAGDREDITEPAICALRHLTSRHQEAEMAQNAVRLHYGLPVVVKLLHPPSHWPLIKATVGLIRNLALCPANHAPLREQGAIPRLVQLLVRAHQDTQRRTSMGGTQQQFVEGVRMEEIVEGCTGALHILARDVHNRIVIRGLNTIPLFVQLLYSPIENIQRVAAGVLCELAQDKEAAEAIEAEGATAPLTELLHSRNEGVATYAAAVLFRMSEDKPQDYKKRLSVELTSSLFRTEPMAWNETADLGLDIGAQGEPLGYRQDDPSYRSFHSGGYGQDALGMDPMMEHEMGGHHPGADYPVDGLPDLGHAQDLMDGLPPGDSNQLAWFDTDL

Target: T1, DNASE1L3 (deoxyribonuclease γ), overexpressed in Huh7 cells (human) (UniProt Q13609)
T1 sequence: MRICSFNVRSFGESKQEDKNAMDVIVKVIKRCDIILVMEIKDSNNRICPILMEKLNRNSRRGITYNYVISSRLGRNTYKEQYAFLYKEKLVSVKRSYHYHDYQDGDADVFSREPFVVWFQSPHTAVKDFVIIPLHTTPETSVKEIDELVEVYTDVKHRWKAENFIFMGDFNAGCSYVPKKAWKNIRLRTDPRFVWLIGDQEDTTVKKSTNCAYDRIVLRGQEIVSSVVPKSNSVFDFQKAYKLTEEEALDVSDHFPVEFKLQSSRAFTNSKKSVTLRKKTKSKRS
Assay: affinity purification with mass spectrometry; IP of DNASE1L3 complexes from extract of DNASE1L3-overexpressing Huh7 cells with specific antibody, IgG as control; 5 mg protein, 4 μg antibody, overnight at 4°C; silver staining and mass spectrometry

binding: binds
Substance: β-catenin, in Huh7 cells (from UniProt P35222 1-781)

No constants are given. Whether binding was seen depends on the method and setting. In cells and extracts the contact can be indirect. A yes stands for co-enrichment or nearness to the bait. Other partners may have been found.
